Source: article doi:10.1101/2024.03.20.585881
These are yes or no findings as the source states them, for the method shown. Some binding calls cover weakened binding; strength is not graded here.

Amino acid sequences for entries named in this document (tags omitted).
UniProt P25054: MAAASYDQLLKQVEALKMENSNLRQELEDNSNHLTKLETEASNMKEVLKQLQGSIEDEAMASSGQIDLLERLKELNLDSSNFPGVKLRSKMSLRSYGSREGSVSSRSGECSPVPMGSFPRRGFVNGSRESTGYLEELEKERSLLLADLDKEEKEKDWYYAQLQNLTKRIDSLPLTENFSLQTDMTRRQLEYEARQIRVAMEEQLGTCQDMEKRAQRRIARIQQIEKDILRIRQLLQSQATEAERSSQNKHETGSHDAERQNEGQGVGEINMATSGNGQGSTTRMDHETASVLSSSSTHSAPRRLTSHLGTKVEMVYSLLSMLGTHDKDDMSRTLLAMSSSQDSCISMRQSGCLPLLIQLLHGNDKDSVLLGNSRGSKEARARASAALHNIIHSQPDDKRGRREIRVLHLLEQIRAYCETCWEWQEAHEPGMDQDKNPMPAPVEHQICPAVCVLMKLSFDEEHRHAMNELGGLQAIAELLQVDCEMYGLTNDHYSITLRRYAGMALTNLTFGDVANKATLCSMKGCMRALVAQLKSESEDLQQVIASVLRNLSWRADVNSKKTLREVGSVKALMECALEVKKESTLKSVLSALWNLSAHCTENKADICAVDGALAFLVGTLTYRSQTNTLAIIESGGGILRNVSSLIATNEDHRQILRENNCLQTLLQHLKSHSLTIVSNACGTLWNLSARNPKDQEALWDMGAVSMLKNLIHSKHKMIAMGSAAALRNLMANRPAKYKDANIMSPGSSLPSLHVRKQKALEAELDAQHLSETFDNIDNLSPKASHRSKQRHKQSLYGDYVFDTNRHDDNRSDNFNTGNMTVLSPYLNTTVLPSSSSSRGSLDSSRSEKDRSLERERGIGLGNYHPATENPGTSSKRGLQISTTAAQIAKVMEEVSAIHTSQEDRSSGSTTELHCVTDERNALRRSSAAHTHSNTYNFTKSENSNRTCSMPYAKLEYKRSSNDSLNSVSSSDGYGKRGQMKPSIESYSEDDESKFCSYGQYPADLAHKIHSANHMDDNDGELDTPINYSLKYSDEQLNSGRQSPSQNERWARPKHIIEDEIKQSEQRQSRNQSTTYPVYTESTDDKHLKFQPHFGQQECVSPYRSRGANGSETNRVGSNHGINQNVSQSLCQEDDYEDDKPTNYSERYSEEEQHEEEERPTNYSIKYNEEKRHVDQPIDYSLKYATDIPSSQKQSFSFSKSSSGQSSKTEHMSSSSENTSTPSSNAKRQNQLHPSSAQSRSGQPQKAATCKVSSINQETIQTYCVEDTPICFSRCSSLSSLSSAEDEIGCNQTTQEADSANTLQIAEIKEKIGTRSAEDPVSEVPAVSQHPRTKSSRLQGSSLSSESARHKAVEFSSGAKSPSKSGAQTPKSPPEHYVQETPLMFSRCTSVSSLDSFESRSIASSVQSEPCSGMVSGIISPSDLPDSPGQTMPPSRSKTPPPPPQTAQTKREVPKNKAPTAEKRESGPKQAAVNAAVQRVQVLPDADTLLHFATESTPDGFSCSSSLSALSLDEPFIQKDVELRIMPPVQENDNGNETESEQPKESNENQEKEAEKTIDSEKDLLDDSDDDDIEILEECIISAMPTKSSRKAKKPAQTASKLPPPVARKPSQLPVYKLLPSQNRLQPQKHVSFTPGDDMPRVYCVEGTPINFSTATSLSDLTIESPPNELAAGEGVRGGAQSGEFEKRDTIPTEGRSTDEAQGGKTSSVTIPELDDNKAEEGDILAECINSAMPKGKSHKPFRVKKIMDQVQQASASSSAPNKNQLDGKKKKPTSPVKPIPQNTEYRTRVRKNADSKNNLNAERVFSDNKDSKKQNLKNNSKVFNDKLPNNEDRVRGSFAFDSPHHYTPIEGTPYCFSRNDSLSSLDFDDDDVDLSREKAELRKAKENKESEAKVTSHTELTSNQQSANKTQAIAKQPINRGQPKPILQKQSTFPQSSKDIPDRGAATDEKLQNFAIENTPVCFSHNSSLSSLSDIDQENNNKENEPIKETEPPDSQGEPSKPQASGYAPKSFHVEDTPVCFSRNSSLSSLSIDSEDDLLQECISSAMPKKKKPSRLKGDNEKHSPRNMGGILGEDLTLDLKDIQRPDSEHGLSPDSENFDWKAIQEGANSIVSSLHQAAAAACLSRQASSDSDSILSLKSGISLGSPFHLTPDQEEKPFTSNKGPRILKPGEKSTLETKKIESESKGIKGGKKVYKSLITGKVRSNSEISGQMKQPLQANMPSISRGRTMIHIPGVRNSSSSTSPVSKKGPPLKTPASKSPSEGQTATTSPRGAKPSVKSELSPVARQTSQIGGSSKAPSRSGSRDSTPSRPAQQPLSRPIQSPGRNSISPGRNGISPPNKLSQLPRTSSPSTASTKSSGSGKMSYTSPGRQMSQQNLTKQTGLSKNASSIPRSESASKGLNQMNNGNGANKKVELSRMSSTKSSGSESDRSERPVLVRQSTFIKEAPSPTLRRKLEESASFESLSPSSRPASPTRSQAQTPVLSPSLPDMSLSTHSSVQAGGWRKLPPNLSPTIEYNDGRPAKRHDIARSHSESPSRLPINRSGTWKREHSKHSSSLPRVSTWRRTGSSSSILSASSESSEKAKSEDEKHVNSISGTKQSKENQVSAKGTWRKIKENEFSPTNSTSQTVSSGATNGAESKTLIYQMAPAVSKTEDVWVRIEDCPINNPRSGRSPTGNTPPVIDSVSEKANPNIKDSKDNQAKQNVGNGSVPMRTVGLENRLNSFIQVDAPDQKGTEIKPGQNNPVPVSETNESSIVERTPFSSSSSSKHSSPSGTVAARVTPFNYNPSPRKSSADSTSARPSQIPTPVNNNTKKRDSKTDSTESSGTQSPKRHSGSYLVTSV
UniProt O15169: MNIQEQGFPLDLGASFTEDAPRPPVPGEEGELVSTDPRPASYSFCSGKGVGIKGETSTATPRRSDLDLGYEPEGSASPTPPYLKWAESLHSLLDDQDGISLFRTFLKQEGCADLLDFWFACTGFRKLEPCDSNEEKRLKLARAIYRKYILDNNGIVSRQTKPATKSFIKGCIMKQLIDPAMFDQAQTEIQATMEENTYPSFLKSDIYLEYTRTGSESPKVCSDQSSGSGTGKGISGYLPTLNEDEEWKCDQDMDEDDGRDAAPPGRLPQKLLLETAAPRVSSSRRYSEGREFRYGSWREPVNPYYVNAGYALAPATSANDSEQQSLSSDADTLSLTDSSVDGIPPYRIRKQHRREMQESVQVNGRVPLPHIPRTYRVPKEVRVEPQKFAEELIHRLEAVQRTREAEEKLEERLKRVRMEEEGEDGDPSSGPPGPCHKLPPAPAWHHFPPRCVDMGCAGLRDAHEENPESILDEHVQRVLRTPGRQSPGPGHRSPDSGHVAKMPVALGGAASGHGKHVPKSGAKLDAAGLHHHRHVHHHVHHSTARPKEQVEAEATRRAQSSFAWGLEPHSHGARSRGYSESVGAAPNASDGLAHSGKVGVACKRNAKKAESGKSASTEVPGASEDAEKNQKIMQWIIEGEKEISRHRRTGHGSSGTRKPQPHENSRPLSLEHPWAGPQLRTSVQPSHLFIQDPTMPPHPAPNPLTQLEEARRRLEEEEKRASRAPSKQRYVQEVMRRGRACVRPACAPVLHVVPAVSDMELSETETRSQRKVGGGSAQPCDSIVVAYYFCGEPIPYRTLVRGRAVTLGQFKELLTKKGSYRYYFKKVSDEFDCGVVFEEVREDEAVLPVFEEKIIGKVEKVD

What was measured:
Assay in all cases: RNA immunoprecipitation with sequencing
[1] = target: 3xFLAG-mScarlet-APC (human (endogenous in HEK293)), P25054; settings: remark: other sources report otherwise
[2] = target: 3xFLAG-eGFP-Axin1 (UniProt O15169)
[3] = target: 3xFLAG-mScarlet-APC (human (endogenous in HEK293)) (UniProt P25054)

B1: AMER1, Q5JTC6 1-1135 (protein)
chain: METQKDEAAQAKGAAASGSTREQTAEKGAKNKAAEATEGPTSEPSSSGPGRLKKTAMKLFGGKKGICTLPSFFGGGRSKGSGKGSSKKGLSKSKTHDGLSEAAHGPEDVVSEGTGFSLPLPELPCQFPSSQSAHGALETGSRCKTSVAGATEKAVAEKFPSMPKPKKGLKGFFSSIRRHRKSKVTGAEQSEPGAKGPERVRARPHEHVSSAPQVPCFEETFQAPRKENANPQDAPGPKVSPTPEPSPPATEKMACKDPEKPMEACASAHVQPKPAPEASSLEEPHSPETGEKVVAGEVNPPNGPVGDPLSLLFGDVTSLKSFDSLTGCGDIIAEQDMDSMTDSMASGGQRANRDGTKRSSCLVTYQGGGEEMALPDDDDEEEEEEEEVELEEEEEEVKEEEEDDDLEYLWETAQMYPRPNMNLGYHPTTSPGHHGYMLLDPVRSYPGLAPGELLTPQSDQQESAPNSDEGYYDSTTPGFEDDSGEALGLVRRDCLPRDSYSGDALYEFYEPDDSLENSPPGDDCLYDLHGRSSEMFDPFLNFEPFLSSRPPGAMETEEERLVTIQKQLLYWELRREQLEAQEARAREAHAREAHAREAYTREAYGREAYAREAHTWEAHGREARTREAQAREVRCRETQVRETQARQEKPVLEYQMRPLGPSVMGLAAGVSGTSQISHRGITSAFPTTASSEPDWRDFRPLEKRYEGTCSKKDQSTCLMQLFQSDAMFEPDMQEANFGGSPRRAYPTYSPPEDPEEEEVEKEGNATVSFSQALVEFTSNGNLFSSMSCSSDSDSSFTQNLPELPPMVTFDIADVERDGEGKCEENPEFHNDEDLAASLEAFELGYYHKHAFNNYHSRFYQGLPWGVSSLPRYLGLPGLHPRPPPAAMALNRRSRSLDTAETLEMELSNSHLVQGYLESDELQAQQEDSDEEDEEEEEGEWSRDSPLSLYTEPPGAYDWPAWAPCPLPVGPGPAWISPNQLDRPSSQSPYRQATCCIPPMTMSISLSVPESRAPGESGPQLARPSHLHLPMGPCYNLQPQASQSMRARPRDVLLPVDEPSCSSSSGGFSPSPLPQAKPVGITHGIPQLPRVRPEHPQPQPTHYGPSSLDLSKERAEQGASLATSYSSTAMNGNLAK
Question: B1 was tested. Which binding [1] did it give?
Answer: binds

B2: JUP (ψ-catenin) (protein, UniProt P14923 1-745)
chain: MEVMNLMEQPIKVTEWQQTYTYDSGIHSGANTCVPSVSSKGIMEEDEACGRQYTLKKTTTYTQGVPPSQGDLEYQMSTTARAKRVREAMCPGVSGEDSSLLLATQVEGQATNLQRLAEPSQLLKSAIVHLINYQDDAELATRALPELTKLLNDEDPVVVTKAAMIVNQLSKKEASRRALMGSPQLVAAVVRTMQNTSDLDTARCTTSILHNLSHHREGLLAIFKSGGIPALVRMLSSPVESVLFYAITTLHNLLLYQEGAKMAVRLADGLQKMVPLLNKNNPKFLAITTDCLQLLAYGNQESKLIILANGGPQALVQIMRNYSYEKLLWTTSRVLKVLSVCPSNKPAIVEAGGMQALGKHLTSNSPRLVQNCLWTLRNLSDVATKQEGLESVLKILVNQLSVDDVNVLTCATGTLSNLTCNNSKNKTLVTQNSGVEALIHAILRAGDKDDITEPAVCALRHLTSRHPEAEMAQNSVRLNYGIPAIVKLLNQPNQWPLVKATIGLIRNLALCPANHAPLQEAAVIPRLVQLLVKAHQDAQRHVAAGTQQPYTDGVRMEEIVEGCTGALHILARDPMNRMEIFRLNTIPLFVQLLYSSVENIQRVAAGVLCELAQDKEAADAIDAEGASAPLMELLHSRNEGTATYAAAVLFRISEDKNPDYRKRVSVELTNSLFKHDPAAWEAAQSMIPINEPYGDDMDATYRPMYSSDVPLDPLEMHMDMDGDYPIDTYSDGLRPPYPTADHMLA
Question: What does the source list for B2?
Answer: binding [2]: binds; binding [3]: binds

B3: AMER1 (protein, UniProt Q5JTC6 1-1135)
chain: B1 chain
Question: With B3 as the binder, how does the binding [2] read?
Answer: binds

B4: PPM1B (protein, UniProt O75688 1-479)
chain: MGAFLDKPKTEKHNAHGAGNGLRYGLSSMQGWRVEMEDAHTAVVGIPHGLEDWSFFAVYDGHAGSRVANYCSTHLLEHITTNEDFRAAGKSGSALELSVENVKNGIRTGFLKIDEYMRNFSDLRNGMDRSGSTAVGVMISPKHIYFINCGDSRAVLYRNGQVCFSTQDHKPCNPREKERIQNAGGSVMIQRVNGSLAVSRALGDYDYKCVDGKGPTEQLVSPEPEVYEILRAEEDEFIILACDGIWDVMSNEELCEYVKSRLEVSDDLENVCNWVVDTCLHKGSRDNMSIVLVCFSNAPKVSDEAVKKDSELDKHLESRVEEIMEKSGEEGMPDLAHVMRILSAENIPNLPPGGGLAGKRNVIEAVYSRLNPHRESDGASDEAEESGSQGKLVEALRQMRINHRGNYRQLLEEMLTSYRLAKVEGEESPAEPAATATSSNSDAGNPVTMQESHTESESGLAELDSSNEDAGTKMSGEKI
Question: For B4, which binding [3] is on record?
Answer: no binding
